# Reference: US20250154171A1, “RAS INHIBITORS” (Revolution Medicines, Inc., priority 2023, published 2025)
# The chains behind the UniProt entries cited, without tags or fusion partners. Where a name states a change or a piece, a line headed by the entry shows the natural chain unless it says otherwise. Residues count along the entry.
# UniProt P01116, 1-188 isoform P01116-2 G12V: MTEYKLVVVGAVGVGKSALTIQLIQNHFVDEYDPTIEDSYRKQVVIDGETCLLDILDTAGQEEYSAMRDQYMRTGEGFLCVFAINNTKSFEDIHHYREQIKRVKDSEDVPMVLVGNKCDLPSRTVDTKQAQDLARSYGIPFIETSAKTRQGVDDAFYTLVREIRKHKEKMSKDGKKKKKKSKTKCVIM
# UniProt P01116, 1-188 isoform P01116-2 G12A: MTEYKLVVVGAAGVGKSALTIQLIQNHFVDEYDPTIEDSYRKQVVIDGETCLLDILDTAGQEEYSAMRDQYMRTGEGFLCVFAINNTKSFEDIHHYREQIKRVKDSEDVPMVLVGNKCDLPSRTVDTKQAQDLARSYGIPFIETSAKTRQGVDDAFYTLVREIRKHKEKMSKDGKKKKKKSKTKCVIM
# UniProt P62937, whole entry: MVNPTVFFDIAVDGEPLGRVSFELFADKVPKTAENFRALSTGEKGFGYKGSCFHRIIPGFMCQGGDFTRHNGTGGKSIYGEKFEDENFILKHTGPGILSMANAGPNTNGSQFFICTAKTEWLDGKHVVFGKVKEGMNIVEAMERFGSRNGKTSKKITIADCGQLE
# Some entries share one result that the patent states for a list of compounds.
# Experiments:
# K-RasG12V = K-RasG12V (Homo sapiens, UniProt P01116+P62937, G12V); assay: Disruption of BRAF RBD interaction with K-Ras (TR-FRET / MOA assay), K-RasG12V; type: biochemical; conditions: TR-FRET with cyclophilin A and GST-BRAF RBD, read-out: IC50 with respect to K-RasG12V (disruption of BRAF RBD interaction)
# K-RasG12A = K-RasG12A (Homo sapiens, UniProt P01116+P62937, G12A); assay: Disruption of BRAF RBD interaction with K-Ras (TR-FRET / MOA assay), K-RasG12A; type: biochemical; conditions: TR-FRET with cyclophilin A and GST-BRAF RBD, read-out: IC50 with respect to K-RasG12A (disruption of BRAF RBD interaction)
# Capan-1 (K-Ras G12V) = assay: CellTiter-Glo cell viability assay, Capan-1; type: cell-based, human; conditions: 5-day treatment, Capan-1 and/or NCI-H2009 versus A375
SMILES,IC50 (K-RasG12V),IC50 (K-RasG12A),decrease in cell viability with respect to Capan-1 and/or NCI-H2009 versus wild-type KRAS (A375) (Capan-1 (K-Ras G12V))
"CO[C@@H](C)c1ncccc1-c1c2c3cc(ccc3n1[C@H]1C[C@@H](C#N)C1)-c1csc(n1)[C@@H](N1CC3(CCN3)C1)[C@H](NC(=O)[C@H]1[C@H](C)[C@@H]1C)C(=O)N1CCC[C@H](N1)C(=O)OCC(C)(C)C2 (atropisomer, axis not shown) [Example A1179]",< 1000 nM,< 1000 nM,greater decrease in cell viability
"CO[C@@H](C)c1ncccc1-c1c2c3cc(ccc3n1[C@H]1C[C@@H](C#N)C1)-c1coc(n1)[C@@H](N1CC3(CCCN3)C1)[C@H](NC(=O)[C@H]1[C@H](C)[C@@H]1C)C(=O)N1CCC[C@H](N1)C(=O)OCC(C)(C)C2 (atropisomer, axis not shown) [Example A1180]",< 1000 nM,< 1000 nM,greater decrease in cell viability
"CO[C@@H](C)c1ncc(N2CCN(C3CC3)CC2)cc1-c1c2c3cc(ccc3n1[C@H]1C[C@@H](C#N)C1)-c1coc(n1)C[C@H](NC(=O)[C@H]1[C@H](C)[C@@H]1C)C(=O)N1CCC[C@H](N1)C(=O)OCC(C)(C)C2 (atropisomer, axis not shown) [Example A1187]",< 1000 nM,< 1000 nM,greater decrease in cell viability
"CO[C@@H](C)c1ncc(C2CCN(C)CC2)cc1-c1c2c3cc(ccc3n1[C@H]1C[C@@H](C#N)C1)-c1coc(n1)C[C@H](NC(=O)[C@H]1[C@H](C)[C@@H]1C)C(=O)N1CCC[C@H](N1)C(=O)OCC(C)(C)C2 (atropisomer, axis not shown) [Example A1188]",< 1000 nM,< 1000 nM,greater decrease in cell viability
"CO[C@@H](C)c1ncc(N2CCN(C)CC2)cc1-c1c2c3cc(ccc3n1[C@H]1C[C@@H](C#N)C1)-c1coc(n1)C[C@H](NC(=O)[C@@H]1[C@@H](C)[C@H]1c1ccncn1)C(=O)N1CCC[C@H](N1)C(=O)OCC(C)(C)C2 (atropisomer, axis not shown) [Example A1189]",< 1000 nM,< 1000 nM,greater decrease in cell viability
"CO[C@@H](C)c1ncc(N2CCN(C)CC2)cc1-c1c2c3cc(ccc3n1[C@H]1C[C@H](C#N)C1)-c1coc(n1)C[C@H](NC(=O)[C@H]1[C@H](C)[C@@H]1C)C(=O)N1CCC[C@H](N1)C(=O)OCC(C)(C)C2 (atropisomer, axis not shown) [Example A1194]",< 1000 nM,< 1000 nM,greater decrease in cell viability
"CO[C@@H](C)c1ncc(N2CCN(C3CC3)CC2)cc1-c1c2c3cc(ccc3n1[C@H]1C[C@H](C#N)C1)-c1coc(n1)C[C@H](NC(=O)[C@H]1[C@H](C)[C@@H]1C)C(=O)N1CCC[C@H](N1)C(=O)OCC(C)(C)C2 (atropisomer, axis not shown) [Example A1195]",< 1000 nM,< 1000 nM,greater decrease in cell viability
C[C@@H]1[C@H](C)[C@H]1C(=O)N[C@@H]1C(=O)N2CCC[C@H](N2)C(=O)OCC(C)(C)Cc2c(-c3cccnc3)n([C@H]3CC[C@H](C#N)C3)c3ccc(cc23)-c2coc(n2)[C@H]1N1CC2(CCN2)C1 [Example A890],< 1000 nM,< 1000 nM,greater decrease in cell viability
C[C@@H]1[C@@H](C(=O)N[C@@H]2C(=O)N3CCC[C@H](N3)C(=O)OCC(C)(C)Cc3c(-c4cccnc4)n([C@H]4CC[C@H](C#N)C4)c4ccc(cc34)-c3coc(n3)[C@H]2N2CC3(CCN3)C2)[C@@H]1c1ccncn1 [Example A891],< 1000 nM,< 1000 nM,greater decrease in cell viability
C[C@@H]1[C@@H](C(=O)N[C@@H]2C(=O)N3CCC[C@H](N3)C(=O)OCC(C)(C)Cc3c(-c4cccnc4)n([C@H]4CC[C@H](C#N)C4)c4ccc(cc34)-c3csc(n3)[C@H]2N2CC3(CCCN3C)C2)[C@@H]1c1ccncn1 [Example A893],< 1000 nM,< 1000 nM,greater decrease in cell viability
CO[C@@H](C)c1ncccc1-c1c2c3cc(ccc3n1C1CN(C3CC3)C1)-c1coc(n1)[C@@H](N1CC3(CCCN3C)C1)[C@H](NC(=O)C13CC(C1)[C@H](C)O3)C(=O)N1CCC[C@H](N1)C(=O)OCC(C)(C)C2 [Example A900],< 1000 nM,< 1000 nM,greater decrease in cell viability
C[C@@H]1[C@H](C)[C@H]1C(=O)N[C@@H]1C(=O)N2CCC[C@H](N2)C(=O)OCC(C)(C)Cc2c(-c3cccnc3)n([C@@H]3CC[C@@H](C#N)C3)c3ccc(cc23)-c2coc(n2)[C@H]1N1CC2(CCN2)C1 [Example A917],< 1000 nM,< 1000 nM,greater decrease in cell viability
C[C@@H]1[C@@H](C(=O)N[C@@H]2C(=O)N3CCC[C@H](N3)C(=O)OCC(C)(C)Cc3c(-c4cccnc4)n([C@@H]4CC[C@@H](C#N)C4)c4ccc(cc34)-c3coc(n3)[C@H]2N2CC3(CCN3)C2)[C@@H]1c1ccncn1 [Example A918],< 1000 nM,< 1000 nM,greater decrease in cell viability
C[C@@H]1[C@H](C)[C@H]1C(=O)N[C@@H]1C(=O)N2CCC[C@H](N2)C(=O)OCC(C)(C)Cc2c(-c3cccnc3)n([C@H]3CC[C@H](C#N)C3)c3ccc(cc23)-c2csc(n2)[C@H]1N1CC2(CCN2)C1 [Example A919],< 1000 nM,< 1000 nM,greater decrease in cell viability
C[C@@H]1[C@H](C)[C@H]1C(=O)N[C@@H]1C(=O)N2CCC[C@H](N2)C(=O)OCC(C)(C)Cc2c(-c3cccnc3)n([C@@H]3CC[C@@H](C#N)C3)c3ccc(cc23)-c2csc(n2)[C@H]1N1CC2(CCN2)C1 [Example A920],< 1000 nM,< 1000 nM,greater decrease in cell viability
C[C@@H]1[C@@H](C(=O)N[C@@H]2C(=O)N3CCC[C@H](N3)C(=O)OCC(C)(C)Cc3c(-c4cccnc4)n([C@@H]4CC[C@@H](C#N)C4)c4ccc(cc34)-c3csc(n3)[C@H]2N2CC3(CCN3)C2)[C@@H]1c1ccncn1 [Example A921],< 1000 nM,< 1000 nM,greater decrease in cell viability
C[C@@H]1[C@H](C)[C@H]1C(=O)N[C@@H]1C(=O)N2CCC[C@H](N2)C(=O)OCC(C)(C)Cc2c(-c3cccnc3)n([C@H]3CC[C@H](C#N)C3)c3ccc(cc23)-c2coc(n2)[C@H]1N1CC2(CCCN2)C1 [Example A922],< 1000 nM,< 1000 nM,greater decrease in cell viability
C[C@@H]1[C@@H](C(=O)N[C@@H]2C(=O)N3CCC[C@H](N3)C(=O)OCC(C)(C)Cc3c(-c4cccnc4)n([C@@H]4CC[C@@H](C#N)C4)c4ccc(cc34)-c3csc(n3)[C@H]2N2CC3(CCCN3)C2)[C@@H]1c1ccncn1 [Example A924],< 1000 nM,< 1000 nM,greater decrease in cell viability
C[C@@H]1[C@H](C)[C@H]1C(=O)N[C@@H]1C(=O)N2CCC[C@H](N2)C(=O)OCC(C)(C)Cc2c(-c3cccnc3)n([C@@H]3CC[C@@H](C#N)C3)c3ccc(cc23)-c2coc(n2)[C@H]1N1CC2(CCN2C)C1 [Example A926],< 1000 nM,< 1000 nM,greater decrease in cell viability
C[C@@H]1[C@@H](C(=O)N[C@@H]2C(=O)N3CCC[C@H](N3)C(=O)OCC(C)(C)Cc3c(-c4cccnc4)n([C@H]4CC[C@H](C#N)C4)c4ccc(cc34)-c3coc(n3)[C@H]2N2CC3(CCN3C)C2)[C@@H]1c1ccncn1 [Example A927],< 1000 nM,< 1000 nM,greater decrease in cell viability
C[C@@H]1[C@@H](C(=O)N[C@@H]2C(=O)N3CCC[C@H](N3)C(=O)OCC(C)(C)Cc3c(-c4cccnc4)n([C@@H]4CC[C@@H](C#N)C4)c4ccc(cc34)-c3coc(n3)[C@H]2N2CC3(CCN3C)C2)[C@@H]1c1ccncn1 [Example A928],< 1000 nM,< 1000 nM,greater decrease in cell viability
C[C@@H]1[C@H](C)[C@H]1C(=O)N[C@@H]1C(=O)N2CCC[C@H](N2)C(=O)OCC(C)(C)Cc2c(-c3cccnc3)n([C@H]3CC[C@H](C#N)C3)c3ccc(cc23)-c2csc(n2)[C@H]1N1CC2(CCN2C)C1 [Example A929],< 1000 nM,< 1000 nM,greater decrease in cell viability
C[C@@H]1[C@H](C)[C@H]1C(=O)N[C@@H]1C(=O)N2CCC[C@H](N2)C(=O)OCC(C)(C)Cc2c(-c3cccnc3)n([C@@H]3CC[C@@H](C#N)C3)c3ccc(cc23)-c2csc(n2)[C@H]1N1CC2(CCN2C)C1 [Example A930],< 1000 nM,< 1000 nM,greater decrease in cell viability
C[C@@H]1[C@@H](C(=O)N[C@@H]2C(=O)N3CCC[C@H](N3)C(=O)OCC(C)(C)Cc3c(-c4cccnc4)n([C@H]4CC[C@H](C#N)C4)c4ccc(cc34)-c3csc(n3)[C@H]2N2CC3(CCN3C)C2)[C@@H]1c1ccncn1 [Example A931],< 1000 nM,< 1000 nM,greater decrease in cell viability
